Measured values as given in the supplement of paper PMC4604168 (melanoma cell lines).
The list shows a part of the results. Many values rest on one well or one pass, so single values are uncertain.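 Imaging used 1,536-well plates; nuclei positive for cleaved PARP by antibody were divided by total DNA-stained nuclei to yield the apoptosis fraction. Doses for screening kept most cells viable, and cell lines differ markedly in resting and induced cleaved-PARP levels.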

Columns and labels:
Experiment in all cases: cleaved PARP positive nuclei fraction relative to DMSO control; melanoma cells; higher = more apoptosis
Conditions in all cases: library dose: low library concentration; 72 h
[1] = test system: WM115
[2] = test system: WM1716
[3] = test system: WM1745
[4] = test system: WM3526
[5] = test system: WM3619
[6] = test system: WM451Lu

| Structure (SMILES) | cleaved PARP positive nuclei fraction [1] [%] | cleaved PARP positive nuclei fraction [2] [%] | cleaved PARP positive nuclei fraction [3] [%] | cleaved PARP positive nuclei fraction [4] [%] | cleaved PARP positive nuclei fraction [5] [%] | cleaved PARP positive nuclei fraction [6] [%] |
| --- | --- | --- | --- | --- | --- | --- |
| Cn1cc(C2=C(c3cn(C4CCN(Cc5ccccn5)CC4)c4ccccc34)C(=O)NC2=O)c2ccccc21 [Enzastaurin] + COc1ccc2c(c1)CCC1C2CCC2(C)C(NCCCCCCN3C(=O)C=CC3=O)CCC12 [U73122] (first compound 0.8 µM, partner dose 0.4 µM) | 112 | 207 | 88.1 | 134 | 86.7 | 51 |
| C[As](C)SC[C@H](NC(=O)CC[C@H](N)C(=O)O)C(=O)NCC(=O)O [Darinaparsin] + CC(C)CCN1c2nc(Nc3cc(F)c(O)c(F)c3)ncc2N(C)C(=O)C1C [BID1870] (first compound 0.4 µM, partner dose 0.2 µM) | 102 | 148 | 94.6 | 67 | 94.2 | 59.5 |
| CCCS(=O)(=O)Nc1ccc(F)c(C(=O)c2c[nH]c3ncc(Cl)cc23)c1F + O=C(Oc1ccc([N+](=O)[O-])cc1)N1CCC(C(O)(c2ccc3c(c2)OCO3)c2ccc3c(c2)OCO3)CC1 [JZL184] (first compound 0.08 µM, partner dose 1 µM) | 164 | 49.6 | 79.9 | 144 | 93.8 | 42.7 |
| Cn1c(=O)n(-c2ccc(C(C)(C)C#N)cc2)c2c3cc(-c4cnc5ccccc5c4)ccc3ncc21 + Cc1cc(SCc2sc(-c3ccc(C(F)(F)F)c(F)c3)nc2C)ccc1OCC(=O)O [GW0742] (first compound 0.004 µM, partner dose 2 µM) | 110 | 97.4 | 83.8 | 69 | 85 | 339 |
| OCc1c[nH]c2ccccc12 [Indole-3-carbinol] + Cc1cc(SCc2sc(-c3ccc(C(F)(F)F)c(F)c3)nc2C)ccc1OCC(=O)O [GW0742] (first compound 0.8 µM, partner dose 2 µM) | 116 | 83.1 | 90.8 | 33 | 93.5 | 58.9 |
| Cc1cc(Nc2cc(N3CCN(C)CC3)nc(Sc3ccc(NC(=O)C4CC4)cc3)n2)n[nH]1 [Tozasertib] + C[As](C)SC[C@H](NC(=O)CC[C@H](N)C(=O)O)C(=O)NCC(=O)O [Darinaparsin] (first compound 0.006 µM, partner dose 0.4 µM) | 31.7 | 53.2 | 112 | 82.2 | 102 | 19.7 |
| Cn1cc(C2=C(c3cn(C4CCN(Cc5ccccn5)CC4)c4ccccc34)C(=O)NC2=O)c2ccccc21 [Enzastaurin] + OCCn1cc(-c2cnc3nnn(Cc4ccc5ncccc5c4)c3n2)cn1 [PF04217903] (first compound 0.8 µM, partner dose 1 µM) | 147 | 77.5 | 97.1 | 48.9 | 77.2 | 95.4 |
| Cn1cc(C2=C(c3cn(C4CCN(Cc5ccccn5)CC4)c4ccccc34)C(=O)NC2=O)c2ccccc21 [Enzastaurin] + NC(=O)Nc1cc(-c2cccc(F)c2)sc1C(=O)N[C@H]1CCCNC1 [AZD7762] (first compound 0.8 µM, partner dose 0.02 µM) | 141 | 139 | 86 | 48.5 | 115 | 58.8 |
| CC(=O)O[C@@]12CO[C@@H]1C[C@H](O)[C@@]1(C)C(=O)[C@H](O)C3=C(C)[C@@H](OC(=O)[C@H](O)[C@@H](NC(=O)OC(C)(C)C)c4ccccc4)C[C@@](O)([C@@H](OC(=O)c4ccccc4)[C@H]21)C3(C)C [Docetaxel] + C/C(O)=C(\C#N)C(=O)Nc1cc(Br)ccc1Br [LFM-A13] (first compound 0.0001 µM, partner dose 2 µM) | 479 | 373 | 194 | 140 | 140 | 144 |
| CCCCCCCCCCCCCCCCCCOP(=O)([O-])OC1CC[N+](C)(C)CC1 [Perifosine] + O=C(Oc1ccc([N+](=O)[O-])cc1)N1CCC(C(O)(c2ccc3c(c2)OCO3)c2ccc3c(c2)OCO3)CC1 [JZL184] (first compound 0.4 µM, partner dose 1 µM) | 97.8 | 91.5 | 72.6 | 316 | 67.6 | 66.2 |
| Cc1cc(SCc2sc(-c3ccc(C(F)(F)F)c(F)c3)nc2C)ccc1OCC(=O)O + Cc1cc([N+](=O)[O-])ccc1NS(=O)(=O)c1cc(Cl)ccc1Cl [FH535] (first compound 2 µM, partner dose 1 µM) | 159 | 104 | 116 | 124 | 84.8 | 18.4 |
| NC1(c2ccc(-c3nc4ccn5c(=O)[nH]nc5c4cc3-c3ccccc3)cc2)CCC1 + Cc1cc(SCc2sc(-c3ccc(C(F)(F)F)c(F)c3)nc2C)ccc1OCC(=O)O [GW0742] (first compound 0.4 µM, partner dose 2 µM) | 330 | 80.2 | 90.7 | 269 | 105 | 120 |
| Cn1cc(C2=C(c3cn(C4CCN(Cc5ccccn5)CC4)c4ccccc34)C(=O)NC2=O)c2ccccc21 [Enzastaurin] + O=C(Oc1ccc([N+](=O)[O-])cc1)N1CCC(C(O)(c2ccc3c(c2)OCO3)c2ccc3c(c2)OCO3)CC1 [JZL184] (first compound 0.8 µM, partner dose 1 µM) | 124 | 201 | 91.9 | 147 | 105 | 126 |
| Cc1cn(-c2cc(NC(=O)c3ccc(C)c(Nc4nccc(-c5cccnc5)n4)c3)cc(C(F)(F)F)c2)cn1 [nilotinib] + Cc1cc(SCc2sc(-c3ccc(C(F)(F)F)c(F)c3)nc2C)ccc1OCC(=O)O [GW0742] (first compound 0.2 µM, partner dose 2 µM) | 80.1 | 125 | 111 | 108 | 102 | 63.1 |
| C[As](C)SC[C@H](NC(=O)CC[C@H](N)C(=O)O)C(=O)NCC(=O)O [Darinaparsin] + CCN(CC)CCCCNc1ncc2cc(-c3cc(OC)cc(OC)c3)c(NC(=O)NC(C)(C)C)nc2n1 [PD173074] (first compound 0.4 µM, partner dose 0.1 µM) | 129 | 206 | 111 | 58.6 | 179 | 55.1 |
| Oc1cc(-c2nc(-c3ccccc3)[nH]c2-c2ccncc2)ccc1Cl + C/C(O)=C(\C#N)C(=O)Nc1cc(Br)ccc1Br [LFM-A13] (first compound 0.2 µM, partner dose 2 µM) | 214 | 50.7 | 111 | 225 | 81.3 | 55.6 |
| COc1cc([C@@H]2c3cc4c(cc3[C@@H](O[C@@H]3O[C@@H]5CO[C@@H](C)O[C@H]5[C@H](O)[C@H]3O)[C@H]3COC(=O)[C@H]23)OCO4)cc(OC)c1O [etoposide] + O=C(Oc1ccc([N+](=O)[O-])cc1)N1CCC(C(O)(c2ccc3c(c2)OCO3)c2ccc3c(c2)OCO3)CC1 [JZL184] (first compound 0.02 µM, partner dose 1 µM) | 140 | 110 | 94.3 | 157 | 108 | 34.7 |
| Cn1cnc2c(F)c(Nc3ccc(Br)cc3Cl)c(C(=O)NOCCO)cc21 [selumetinib] + O=C(Oc1ccc([N+](=O)[O-])cc1)N1CCC(C(O)(c2ccc3c(c2)OCO3)c2ccc3c(c2)OCO3)CC1 [JZL184] (first compound 0.015 µM, partner dose 1 µM) | 171 | 132 | 82.2 | 83.3 | 107 | 142 |
| N.N.[Cl][Pt][Cl] [cisplatin] + COc1ccc2c(c1)CCC1C2CCC2(C)C(NCCCCCCN3C(=O)C=CC3=O)CCC12 [U73122] (first compound 1.6 µM, partner dose 0.4 µM) | 237 | 61.9 | 89 | 90.1 | 116 | 37.9 |
| Nc1cccc2c1CN(C1CCC(=O)NC1=O)C2=O (configuration not stated) [lenalidomide] + O=C(Oc1ccc([N+](=O)[O-])cc1)N1CCC(C(O)(c2ccc3c(c2)OCO3)c2ccc3c(c2)OCO3)CC1 [JZL184] (first compound 1 µM, partner dose 1 µM) | 77.8 | 91.3 | 108 | 72.8 | 82.8 | 144 |
| CC1(C)CCC(c2ccc(Cl)cc2)=C(CN2CCN(c3ccc(C(=O)NS(=O)(=O)c4ccc(N[C@H](CCN5CCOCC5)CSc5ccccc5)c(S(=O)(=O)C(F)(F)F)c4)cc3)CC2)C1 + C[As](C)SC[C@H](NC(=O)CC[C@H](N)C(=O)O)C(=O)NCC(=O)O [Darinaparsin] (first compound 0.4 µM, partner dose 0.4 µM) | 166 | 463 | 593 | 188 | 93.3 | 24.2 |
| N.N.[Cl][Pt][Cl] [cisplatin] + CCCS(=O)(=O)Nc1ccc(F)c(C(=O)c2c[nH]c3ncc(Cl)cc23)c1F [PLX4720] (first compound 1.6 µM, partner dose 0.08 µM) | 55.3 | 31.4 | 88.4 | 99 | 286 | 161 |

Not a retest: entries from further up.

| Structure (SMILES) | cleaved PARP positive nuclei fraction [1] [%] | cleaved PARP positive nuclei fraction [2] [%] | cleaved PARP positive nuclei fraction [3] [%] | cleaved PARP positive nuclei fraction [4] [%] | cleaved PARP positive nuclei fraction [5] [%] | cleaved PARP positive nuclei fraction [6] [%] |
| --- | --- | --- | --- | --- | --- | --- |
| Cn1c(=O)n(-c2ccc(C(C)(C)C#N)cc2)c2c3cc(-c4cnc5ccccc5c4)ccc3ncc21 + Cc1cc(SCc2sc(-c3ccc(C(F)(F)F)c(F)c3)nc2C)ccc1OCC(=O)O [GW0742] (first compound 0.004 µM, partner dose 2 µM) | 110 | 97.4 | 83.8 | 69 | 85 | 339 |
| OCc1c[nH]c2ccccc12 [Indole-3-carbinol] + Cc1cc(SCc2sc(-c3ccc(C(F)(F)F)c(F)c3)nc2C)ccc1OCC(=O)O [GW0742] (first compound 0.8 µM, partner dose 2 µM) | 116 | 83.1 | 90.8 | 33 | 93.5 | 58.9 |
| Cc1cc(Nc2cc(N3CCN(C)CC3)nc(Sc3ccc(NC(=O)C4CC4)cc3)n2)n[nH]1 [Tozasertib] + C[As](C)SC[C@H](NC(=O)CC[C@H](N)C(=O)O)C(=O)NCC(=O)O [Darinaparsin] (first compound 0.006 µM, partner dose 0.4 µM) | 31.7 | 53.2 | 112 | 82.2 | 102 | 19.7 |
| Cn1cc(C2=C(c3cn(C4CCN(Cc5ccccn5)CC4)c4ccccc34)C(=O)NC2=O)c2ccccc21 [Enzastaurin] + OCCn1cc(-c2cnc3nnn(Cc4ccc5ncccc5c4)c3n2)cn1 [PF04217903] (first compound 0.8 µM, partner dose 1 µM) | 147 | 77.5 | 97.1 | 48.9 | 77.2 | 95.4 |
| Cn1cc(C2=C(c3cn(C4CCN(Cc5ccccn5)CC4)c4ccccc34)C(=O)NC2=O)c2ccccc21 [Enzastaurin] + NC(=O)Nc1cc(-c2cccc(F)c2)sc1C(=O)N[C@H]1CCCNC1 [AZD7762] (first compound 0.8 µM, partner dose 0.02 µM) | 141 | 139 | 86 | 48.5 | 115 | 58.8 |
| CC(=O)O[C@@]12CO[C@@H]1C[C@H](O)[C@@]1(C)C(=O)[C@H](O)C3=C(C)[C@@H](OC(=O)[C@H](O)[C@@H](NC(=O)OC(C)(C)C)c4ccccc4)C[C@@](O)([C@@H](OC(=O)c4ccccc4)[C@H]21)C3(C)C [Docetaxel] + C/C(O)=C(\C#N)C(=O)Nc1cc(Br)ccc1Br [LFM-A13] (first compound 0.0001 µM, partner dose 2 µM) | 479 | 373 | 194 | 140 | 140 | 144 |
